Eight molecules from US20100119511A1 can be followed below.

By UniProt entry, the sequences of proteins in these tests, tags left out. Residues count along the entry.
UniProt P70424, residues 23-653: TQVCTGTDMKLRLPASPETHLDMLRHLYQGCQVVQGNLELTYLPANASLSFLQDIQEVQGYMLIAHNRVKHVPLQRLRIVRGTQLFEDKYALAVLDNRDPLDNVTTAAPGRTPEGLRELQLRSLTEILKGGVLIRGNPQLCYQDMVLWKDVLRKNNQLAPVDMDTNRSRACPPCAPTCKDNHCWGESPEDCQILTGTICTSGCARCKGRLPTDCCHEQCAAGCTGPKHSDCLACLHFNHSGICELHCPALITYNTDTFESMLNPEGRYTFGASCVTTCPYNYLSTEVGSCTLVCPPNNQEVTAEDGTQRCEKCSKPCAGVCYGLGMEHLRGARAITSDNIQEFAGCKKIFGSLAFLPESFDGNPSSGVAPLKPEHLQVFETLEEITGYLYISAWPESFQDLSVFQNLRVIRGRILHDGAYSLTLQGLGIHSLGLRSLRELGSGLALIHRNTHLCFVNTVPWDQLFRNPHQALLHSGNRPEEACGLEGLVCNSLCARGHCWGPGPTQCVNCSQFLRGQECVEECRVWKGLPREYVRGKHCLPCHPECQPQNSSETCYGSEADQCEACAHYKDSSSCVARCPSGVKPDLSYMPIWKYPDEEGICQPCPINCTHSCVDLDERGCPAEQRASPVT
UniProt P06494, residues 23-1257: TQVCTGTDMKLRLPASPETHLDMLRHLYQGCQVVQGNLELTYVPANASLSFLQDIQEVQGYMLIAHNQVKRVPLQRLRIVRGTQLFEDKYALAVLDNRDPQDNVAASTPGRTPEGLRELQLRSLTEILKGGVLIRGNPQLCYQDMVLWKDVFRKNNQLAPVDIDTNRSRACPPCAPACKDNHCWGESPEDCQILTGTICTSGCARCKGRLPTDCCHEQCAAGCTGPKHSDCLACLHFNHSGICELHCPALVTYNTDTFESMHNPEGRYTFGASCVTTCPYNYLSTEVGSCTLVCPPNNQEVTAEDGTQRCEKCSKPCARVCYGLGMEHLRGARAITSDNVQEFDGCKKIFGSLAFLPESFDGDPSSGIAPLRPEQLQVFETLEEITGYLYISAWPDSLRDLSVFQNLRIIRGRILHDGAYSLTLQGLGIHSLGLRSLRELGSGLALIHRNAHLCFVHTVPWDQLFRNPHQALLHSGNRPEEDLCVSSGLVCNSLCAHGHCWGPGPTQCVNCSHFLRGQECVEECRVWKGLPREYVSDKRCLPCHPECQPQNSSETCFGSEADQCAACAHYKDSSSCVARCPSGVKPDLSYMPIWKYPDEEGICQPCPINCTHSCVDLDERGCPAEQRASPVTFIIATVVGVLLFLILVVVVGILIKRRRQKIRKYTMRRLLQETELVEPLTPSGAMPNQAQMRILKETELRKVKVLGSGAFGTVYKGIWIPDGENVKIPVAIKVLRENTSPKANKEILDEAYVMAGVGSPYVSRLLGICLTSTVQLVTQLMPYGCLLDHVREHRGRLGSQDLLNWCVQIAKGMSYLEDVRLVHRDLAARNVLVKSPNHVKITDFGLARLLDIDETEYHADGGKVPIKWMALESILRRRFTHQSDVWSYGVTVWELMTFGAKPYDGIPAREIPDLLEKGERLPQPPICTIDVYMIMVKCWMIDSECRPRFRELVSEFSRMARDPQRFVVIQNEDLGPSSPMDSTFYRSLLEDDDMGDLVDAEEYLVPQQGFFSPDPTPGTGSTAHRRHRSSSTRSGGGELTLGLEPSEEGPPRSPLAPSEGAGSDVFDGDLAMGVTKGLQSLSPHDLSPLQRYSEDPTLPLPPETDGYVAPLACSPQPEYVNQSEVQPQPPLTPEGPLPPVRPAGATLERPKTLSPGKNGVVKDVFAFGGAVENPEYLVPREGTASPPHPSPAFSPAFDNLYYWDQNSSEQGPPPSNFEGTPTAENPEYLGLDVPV

Results are given in words; binding and its absence hold for the method and conditions named. Some binding calls cover weakened binding; strength is not graded here.

The target in one assay is D1-D2-D3 Her2-Fc. The assay is described as follows: ELISA, HER2 domain-Fc captured on anti-huFc, detection HRP-anti-fab.
The target of the next assay is D1-D2 Her2-Fc. Described as above.
Assay [1] addresses wild type mHER2/ErbB2 (ELISA of Example 3) (mouse) (UniProt P70424). The assay is described as follows: ELISA. A general note: In an ELISA, binding on a coated surface is turned into a signal by an enzyme label.
In assay [2] the target is rat HER2 on Tubo cancer cells (rat) (UniProt P06494). The assay is described as follows: FACS on Tubo cancer cells.
Assay [3] addresses human HER2/ErbB2, full length, on cells (human) (UniProt P04626). The assay is described as follows: flow cytometry on SKBR3 cells. (Flow cytometry measures light scatter and fluorescence of single cells or particles in a stream.)
Assay [4] has the same target. The assay is described as follows: flow cytometry on CHO/hHER2 cells, detection anti-hFc; because the IgG carries its own Fc these panels say nothing on LTbR-Ig or HVEM-Ig.
For assay [5] the target is unchanged. Nature of the assay: flow cytometry on CHO/hHER2 cells; binder pre-incubated with Control IgG, LTbR-Ig or Her2-Fc, each 20ug/ml.

B1: BIIB65B03 Fab (Fab, V domains shown)
VH: EVQLLESGGGLVQPGGSLRLSCAASGFTFSWYRMNWVRQAPGKGLEWVSSIYSSGGPTNYADSVKGRFTISRDNSQNTLYLQMNSLRAEDTAVYYCTREKPDYYDSSGYLDYWGQGTLVTVSS
VL: DIQMTQSPGTLSLSPGERSTLSCRASQSVSSSYLAWYQQKPGQAPRLLIYGASSRATGIPDRFSGSGSGTDFTLTISRLEPEDFGVYYCHQYGRPPVFGPGTKVDIK
B1: the binding entry in the assay with D1-D2-D3 Her2-Fc is on record as “binds”.

B2: BIIB67F11 Fab (Fab, V domains shown)
VH: EVQLLESGGGLVQPGGSLRLSCAASGFTFSNYYMMWVRQAPGKGLEWVSVIGSSGGMTNYADSVKGRFTISRDNSKNTLYLQMNSLRAEDTAVYYCARGYPTGYYDSSGWVYSYYGIDVWGQGTTVTVSS
VL: DIQMTQSPSSLSASIGDRVTITCQASQDTDNRLHWYQQKSGRAPKLLIYDAVNLKRGVPSRFRGSGSGTNFILTITNLQPEDMATYFCQHSDGLSLAFGGGTKLEIK
B2: the binding entry with D1-D2 Her2-Fc and with D1-D2-D3 Her2-Fc was “binds” throughout.

B3: BIIB71F10 Fab (Fab, V domains shown)
VH: EVQLLESGGGLVQPGGSLRLSCAASGFTFSSYGMVWVRQAPGKGLEWVSSISSSGGLTWYADSVKGRFTISRDNSKNTLYLQMNSLRAEDTAVYYCASPPGIAVARDYWGQGTLVTVSS
VL: DIQMTQSPSSLSASVGDRVTITCRASQGISNYLAWYQQKPGKVPKLLIYAASTLQSGVPSRFSGSGSGTDFTLTISSLQPEDVATYYCQKYNSALLTFGGGTKVEIK
For B3, the binding result (with D1-D2 Her2-Fc; with D1-D2-D3 Her2-Fc; in assay [1]; in assay [2]) was “binds” each time.

B4: 71F10 IgG (BIIB71F10-134) (antibody, V domains shown)
VH: B3 VH
VL: DIQMTQSPSSLSASVGDRVTITCRASQGISNYLAWYQQKPGKVPKLLIYAASTLQSGVPSRFSGSGSGTDFTLTISSLQPEDVATYYCQKYNSALLTFGGGTKVEIKR
For the molecule B4, the binding entry in assay [3], in assay [4] and in assay [5] was “binds” each time.

B5: BIIB65H09 Fab (Fab, V domains shown)
VH: EVQLLESGGGLVQPGGSLRLSCAASGFTFSWYSMWWVRQAPGKGLEWVSSIVSSGGQTRYADSVKGRFTISRDNSKNTLYLQMNSLRAEDTAVYYCARVKGYYYYIDVWGKGTTVTVSS
VL: DIQMTQSPGTLSLSPGERATLSCRASQSVDSSYLSWYQQKPGQAPRLLIYGASTRATGIPARFSGSGSGTDFTLTVSRLEPEDFAVYYCQQHGYSSRTFGQGTKVEIK
Turning to B5, the binding entry in the assay with D1-D2-D3 Her2-Fc was “binds”.

B6: BIIB66C01 Fab (Fab, V domains shown)
VH: EVQLLESGGGLVQPGGSLRLSCAASGFTFSWYSMSWVRQAPGKGLEWVSSISSSGGPTHYADSVKGRFTISRDNSKNTLYLQMNSLRAEDTAVYYCARDSSYSGTSWGQGTLVTVSS
VL: QYELTQPPSVSGTPGQRVTISCSGSSSNIGSEYVYWFQQLPGTAPRLLIYRNDQRPSGVPDRFSGSKSGTSASLAISGLRSEDETDYYCTTWDDSLSGPVFGGGTKLTVL
As for B6, the binding result with D1-D2-D3 Her2-Fc is reported as “binds”.

B7: BIIB67F10 Fab (Fab, V domains shown)
VH: EVQLLESGGGLVQPGGSLRLSCAASGFTFSPYMMVWVRQAPGKGLEWVSWISPSGGYTFYADSVKGRFTISRDNSKNTLYLQMNSLRAEDTAVYYCAYGTYPLTYWGQGTLVTVSS
VL: QSELTQTPSVSVSPGQTASITCSGDKLGDKYVSWFQLKPGQSPLLVIYQDSKWPSGIPERFSGSNSGNTATLTISGTQATDEADYYCQVWDISHVVFGGGTKLTVL
Turning to B7, the binding entry with D1-D2 Her2-Fc and with D1-D2-D3 Her2-Fc was “binds” in each case.

B8: BIIB69A09 Fab (Fab, V domains shown)
VH: EVQLLESGGGLVQPGGSLRLSCAASGFTFSRYNMWWVRQAPGKGLEWVSVIRSSGGYTGYADSVKGRFTISRDNSKNTLYLQMNSLRAEDTAVYYCARWNSGYSYWDYYYGMDVWGQGTTVTVSS
VL: DIQMTQSPSSLSASVGDRVTITCRASQSISSYLNWYQQKPGKAPKLLIYAASSLQSGVPSRFSGSGSGTDFTLTISSLQPEDFATYYCQQFNTYPITFGPGTKVDIK
Take B8: the binding result with D1-D2 Her2-Fc and in the assay with D1-D2-D3 Her2-Fc was “binds” each time.
